Measurements as given in the supplement of paper PMC8007513.
The list shows a part of the results. Single values are uncertain, as repeats are few or missing.

These compounds were tested on Saccharomyces cerevisiae BY4743 (assay: growth (OD600) relative to untreated control; higher = less growth inhibition). Details: compound concentration: 133 uM; 20 h.
Procedure: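 NMCCC compounds (133 uM, no IPBC) tested alone against Saccharomyces cerevisiae BY4743 in YPD, 96-well plates, starting OD600 ~0.1. Growth was read as OD600 at 20 h and expressed as % of the untreated control. Single pass.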

Structure (SMILES)	growth [%]
Cl\C1=C(\CCCC1)C(=O)NC2=CC=C(C=C2)N3CCOCC3	105
Cc1nc(SCC(=O)NC(C)CCc2ccccc2)c2ccccc2n1 (centres undefined)	96.5
O=C(NCc1ccc(F)cc1)c1sccc1S(=O)(=O)NC1CC1	109
Cc1cc(Cc2ccc(S(=O)(=O)N(C)Cc3ccccc3)cc2)c(O)nn1	77.5
CCOC(=O)c1cc(CNC2(CN3CCOCC3)CCCC2)on1	108
O=C(CCCN1C(=O)CSc2ncccc21)NCC1CCCO1 (centres undefined)	95.8
O=C(CCc1nnc(-c2ccccc2)o1)Nc1ccccc1OC(F)F	89.8
CCc1c(C)sc(NS(=O)(=O)c2ccc(NC(C)=O)cc2)c1C#N	103
COC(=O)c1ccc(N2CCCC2)c(NC(=O)N(C)Cc2ccc(OC)cc2OC)c1	103
Cc1ccc(S(=O)(=O)N(Cc2nc(-c3ccccc3)no2)C(C)C)cc1	67.4
OC1(C\C(=N/N1C(=O)C2CC2)C3=CC=CC=C3)C(F)(F)F (centres undefined)	98.2
COc1ccc(C(=O)CSc2ccc3ccccc3n2)c(OC)c1	89.2
CSc1nc2ccc(NC(=O)CSC(C)C(=O)Nc3cc(C)on3)cc2s1 (centres undefined)	103
CC(=O)Nc1c(C)noc1/C=C\c1ccc(C)c(S(=O)(=O)NC2CCCC2)c1	108
Cc1nc(C)c(-c2nnc(SC(C)C(=O)NC3CCCCCC3)o2)s1 (centres undefined)	102
CCCC(=O)Nc1ccc(C(=O)CSc2nnc(-c3cccnc3)n2C)cc1	105
CC(C(=O)[O-])n1c(Br)nc2c1c(=O)[nH]c(=O)n2C (centres undefined)	100
CN(C)CCCN(C(=O)c1ccc(Br)s1)c1nc2ccc(F)cc2s1	4.1
CCCN(CCC)C(=O)c1oc2ccccc2c1NC(=O)c1ccco1	99.4
Cc1cc(C(=O)CSc2ncccn2)c(C)n1-c1cccc(F)c1	91.3

Structure (SMILES)	growth [%]
COc1ccc(-c2nnc(SCC(=O)NC(C)(C#N)C(C)C)o2)cc1 (centres undefined)	105
Cc1cc(NC(=O)CSCC(=O)OCc2ccc(-n3cccn3)cc2)no1	102
NC(=O)c1ccsc1NC(=O)c1ccc(F)cc1F	79.7
Cc1cc(C)c2c(N)c(-c3ccccn3)sc2n1	95.4
COC(=O)c1c(C)[nH]c(C(=O)CN2CCCC2c2cccn2C)c1C (centres undefined)	114
CN(C)S(=O)(=O)c1cccc(COc2ncnc3c(Cl)cc(Cl)cc23)c1	109
CN1\C=C/C(=C\C1=O)C(=O)NCC2=CC=CC=C2OC(F)(F)F	103
CCNc1sc(S(C)(=O)=O)nc1S(=O)(=O)c1ccc(Cl)cc1	94
CN(CC(=O)NC1=CC=CC=C1Cl)C(=O)CN2\N=C/C(=O)C3=CC=CC=C23	102
CC(=O)ON1C(C)(C)Cc2noc(N)c2C1(C)C	97.6
CC(C)C(=O)NC1=CC=C(C=C1)C(=O)C(C)OC(=O)CN2\C=N/C3=C(C=CS3)C2=O (centres undefined)	102
O=C(NCC(c1ccco1)S(=O)(=O)c1cccs1)C(=O)NC1CCCCC1 (centres undefined)	99
COC(=O)C1Cc2ccccc2CN1C(=O)CN(C)CCOc1ccccc1 (centres undefined)	109
Cc1cc2c(N)c(C(N)=O)sc2nc1-c1ccc(F)cc1	105
CCOC(=O)c1sc(-n2nc(C)c(Cc3ccccc3)c2O)nc1C	117
COC(=O)c1c(C)[nH]c(C(=O)N2CCN(S(C)(=O)=O)CC2)c1C	101
COCCN1\C=C/C2=C(OCC(=O)NC3=CC=C(Br)C=C3)C=CC=C2C1=O	90
CCOC(=O)c1nc2ccccc2nc1Nc1cc(C)ccc1C	87.2
CCc1ccc(NS(=O)(=O)c2ccc(C(=O)N(C)C)s2)cc1	104

Copied from the list.
Entry for `CC(C)C(=O)NC1=CC=C(C=C1)C(=O)C(C)OC(=O)CN2\C=N/C3=C(C=CS3)C2=O` (centres undefined) under growth [%]: 102
Entry for `Cc1cc(C)c2c(N)c(-c3ccccn3)sc2n1` under growth [%]: 95.4
Entry for `CN1\C=C/C(=C\C1=O)C(=O)NCC2=CC=CC=C2OC(F)(F)F` under growth [%]: 103
